Experimental data published in patent US20030207791A1, “Materials and methods relating to the treatment of leukaemias” (priority 2000, published 2003).
Results are given in words; binding and its absence hold for the method and conditions named. For some assays here: Binding seen in cells or lysates may run through a third protein. Some entries that bind do so weakly or less than the wild type. For some assays here: Sequences can lack the tags named with a protein.

Chains of the proteins cited; added tags and fusions are not shown. Lines headed by an entry give the natural chain unless they say otherwise; changes in a name come on top. A line that says so, or that is headed by a name, gives the form on record, which may keep a tag or linker.
PML (P29590, form named): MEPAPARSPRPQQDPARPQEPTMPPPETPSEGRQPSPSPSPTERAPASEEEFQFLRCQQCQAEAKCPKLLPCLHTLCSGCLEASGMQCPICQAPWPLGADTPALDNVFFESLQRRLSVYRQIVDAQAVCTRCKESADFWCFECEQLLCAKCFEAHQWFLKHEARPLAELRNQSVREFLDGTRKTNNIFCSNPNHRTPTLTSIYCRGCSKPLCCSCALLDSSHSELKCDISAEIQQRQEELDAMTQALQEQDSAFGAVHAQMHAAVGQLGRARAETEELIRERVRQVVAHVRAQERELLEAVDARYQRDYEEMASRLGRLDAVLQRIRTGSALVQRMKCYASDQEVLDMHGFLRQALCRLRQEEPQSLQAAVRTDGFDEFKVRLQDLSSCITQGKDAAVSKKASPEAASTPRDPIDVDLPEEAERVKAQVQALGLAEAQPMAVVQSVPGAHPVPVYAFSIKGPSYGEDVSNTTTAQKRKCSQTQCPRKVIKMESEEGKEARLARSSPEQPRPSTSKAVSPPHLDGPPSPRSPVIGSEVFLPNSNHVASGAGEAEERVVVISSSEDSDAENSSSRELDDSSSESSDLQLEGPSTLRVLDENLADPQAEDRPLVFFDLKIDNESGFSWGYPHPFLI

Tests used:
PML-RAR [1] = molecular target: PML-RAR (UniProt P29590); assay: co-fractionation in gel filtration and anti-RAR immunoprecipitation, anti-PML Western blot
PML-RAR [2] = molecular target: PML-RAR (UniProt P29590); assay: gel filtration and co-immunoprecipitation with anti-RAR antibodies
PML = PML (UniProt P29590); assay: gel filtration of nuclear extracts and of bacterially expressed PML
GST-NCoR (1782-2453) [3] = molecular target: T1, GST-NCoR (1782-2453) (UniProt Q60974); assay: GST pull-down, in vitro translated 35S-labelled protein, increasing GST-NCoR
T1 sequence (looked up): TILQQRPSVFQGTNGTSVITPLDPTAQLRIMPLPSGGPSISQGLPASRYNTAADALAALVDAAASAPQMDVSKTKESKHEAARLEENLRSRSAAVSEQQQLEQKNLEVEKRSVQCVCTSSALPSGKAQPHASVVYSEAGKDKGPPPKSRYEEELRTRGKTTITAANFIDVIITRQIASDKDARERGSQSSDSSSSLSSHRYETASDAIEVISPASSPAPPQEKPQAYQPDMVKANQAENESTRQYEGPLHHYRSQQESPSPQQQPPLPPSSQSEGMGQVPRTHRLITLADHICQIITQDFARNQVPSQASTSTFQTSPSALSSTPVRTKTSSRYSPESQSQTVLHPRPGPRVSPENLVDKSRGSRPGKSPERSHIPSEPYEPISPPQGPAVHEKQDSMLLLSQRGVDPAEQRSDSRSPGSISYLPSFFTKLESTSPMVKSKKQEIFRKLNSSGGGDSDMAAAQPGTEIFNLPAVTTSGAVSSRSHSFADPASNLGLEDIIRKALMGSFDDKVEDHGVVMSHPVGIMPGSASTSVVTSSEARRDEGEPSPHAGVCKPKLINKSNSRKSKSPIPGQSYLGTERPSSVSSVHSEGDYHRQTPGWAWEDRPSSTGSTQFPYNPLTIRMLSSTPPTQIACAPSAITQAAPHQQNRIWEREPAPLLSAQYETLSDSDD

GST-NCoR (1782-2453) [4] = molecular target: T1, GST-NCoR (1782-2453); assay: GST pull-down with 150 ng to 10 µg GST-NCoR on agarose beads
PML-RAR [5] = molecular target: PML-RAR (UniProt P29590); assay: resistance to 2M KCl, 1% Triton or NP-40, 50 mM DTT (unpublished data)
PML-RAR [6] = molecular target: PML-RAR (UniProt P29590); assay: gel filtration; also PML-RAR purified from nuclear extracts by DNA affinity
PML-RAR [7] = molecular target: PML-RAR (UniProt P29590); assay: in vivo cross-linking with DTBP, gel filtration, anti-PML immunoprecipitation
PML-RAR [8] = molecular target: PML-RAR (UniProt P29590); assay: gel filtration of in vitro translated and bacterially expressed PML-RAR
GST-NCoR (1782-2453) [9] = molecular target: T1, GST-NCoR (1782-2453); assay: GST pull-down, in vitro translated 35S-labelled protein on GST-NCoR agarose beads
PML-RAR [10] = molecular target: PML-RAR (UniProt P29590); assay: molecular mass from Stokes radius (gel filtration) and sedimentation coefficient (sucrose gradient)

Measured: binding

PML (from UniProt P29590 1-633)
binds: PML-RAR [1] | PML-RAR [2] | PML

p53-RAR (from UniProt P04637 325-356; P10276 1-462)
binds: GST-NCoR (1782-2453) [3]

PML-RAR (from UniProt P29590 1-552; P10276 61-462)
binds: GST-NCoR (1782-2453) [4] | PML-RAR [5] | PML-RAR [6] | PML-RAR [7] | PML-RAR [8] | GST-NCoR (1782-2453) [9] | PML-RAR [10]
